At least one compound was matched to its structure with a doubt left.
Tested on: fiaj1 cells
Assay: Cerebral organoid differentiation, unguided protocol, fiaj1 line
Type: cell-based, human
Conditions: added at the point of EB generation together with Wnt inhibition
From the text: The so called “unguided protocol” relies on the natural propensity of PSCs to differentiate to neural fate and specifically forebrain when not exposed to any growth factors. The inventors cultured PSCs in Stemflex (Thermo) medium on plates coated with Matrigel growth factor reduced (Corning) and for generation of brain organoids they used STEMdiff Cerebral Organoid Kit (Stemcell Technologies). Despite these highly standardised conditions (FIG. 1A), the outcome of the protocol (i.e. the identity and quality of the tissues produced) can vary depending on the cell line that was used in the protocol or even between different batches of the same line (FIGS. 1 B and C). This makes producing good quality organoids from different lines difficult and unpredictable. To address this variability that plagues not only the neural organoid field but also others that rely on 2D and 3D differentiation to a variety of cell types, the inventors investigated the potential sources of this variability in PSCs and potential treatments to address this problem or, in other words, to standardise the performance of PSCs during differentiation.
Because neural differentiation represents the default program upon pluripotency exit, the ability of a cell line to undergo such unguided differentiation is also a good indication of their pluripotent state. […]

O=c1cc(N2CCOCC2)oc2c(-c3ccccc3)cccc12 [PI3K inhibitor]
Effect: organoid differentiation: improve organoid
